Source: paper PMC3804554

Amino acid sequences for entries named in this document (tags omitted). A change or cut given only in a name is not applied to a line headed by its entry.
UniProt E2QCI6: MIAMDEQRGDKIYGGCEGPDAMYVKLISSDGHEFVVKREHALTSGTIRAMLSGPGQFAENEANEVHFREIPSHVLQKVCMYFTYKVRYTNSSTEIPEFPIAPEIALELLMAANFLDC

Molecular target: EloC-Myc (Elongin C, Myc-tagged) (Drosophila melanogaster) (UniProt E2QCI6)
Assay: co-IP; Myc- and FLAG-tagged proteins co-expressed in S2 cells; native whole cell extracts (no cross-linking); IP with anti-FLAG or anti-Myc, protein G-agarose, Western blot

binding: binds
B1: Corto-FLAG (ETP Corto, FLAG-tagged) (protein, UniProt P41046 1-550)
chain: MTMAACYANYDMSSLSHGMSALSALQQQQQQQQQQHSQTQQQHHHQQQQQHMYHAAVAAHQQQLLQQQQQQQHHRHHHQPANTSSSSNSRHSHAAATQTQVAAAVANSRQQQQQQQQQQQQQQQQQTASSNSNAAPAPSPQKDYSIPLHVDCSVEYELPNQPKPPAGQRVEPLLMIHPCYFRKMESQRRSPFVNNMHATARAVSSSSLSSGAALGGGGSGAAVATAPSSSAARRGARAATSAQQQQQQQQRYQQQQQQLRQQHQQMSQMSQQAHYPQQQSSLVRQHQQQQQQQQQQQRASSNQSQRQSQSQSQSQSHAANSAAAAAAQASIAAAAAGQWDQLAALAARTALTPHHMLHPHSHYAAKGSGGGAGGGKRDAMISGSYGQTAVASGKLQQSQVQQQQPQQQQQHCLPPPPWDATSMLMDRSPMATVPSNYQAGPDTNPMRLYSATPTAGAASGGSASVGGGGAVSGAGATGAVNTATDKLSGKYRQYLRSQRMHPYAAAASLNLAAAAAAAGQTSFVPFSSAATAVAATPTFQHLPQISCYNV

Results are given in words; binding and its absence hold for the method and conditions named. In cells and extracts the contact can be indirect. Binding calls can cover weak binding; strength is not graded here. Sequences can lack the tags named with a protein.
